{"source": "patent US10253274B2", "about": "“Compounds and methods for inhibiting corrosion in hydrocarbon processing units” (General Electric Company, priority 2012, dated 2019)", "test": "Amine-HCl salt precipitation potential index (Salt PPI) relative to ammonia salt", "format": "physicochemical", "settings": "ammonia salt is the benchmark", "description": "Without limiting this specification to any particular theory of operation, the overall efficiency of a given amine may be predicted upon assessment of several factors. One such factor is the amine-HCl salt precipitation potential index (“Salt PPI”). The Salt PPI may also be known by those in the art as the salt volatility index. These indices are merely a comparison of the precipitation potential of the amine salt to the salt of a typical neutralizing compound used in hydrocarbon refining, ammonia.\nSalt PPI may be calculated from the equation: […]\nIf one were to substitute the vapor pressure of ammonia for the vapor pressure of the amine in the equation, the Salt PPI would be 1.0. Effective amines are those that are as good, if not better than the typical additive, ammonia. Thus, effective amines would have a Salt PPI of equal to or less than 1.0. Other neutralizers commonly used in hydrocarbon refining are trimethylamine and N-methylmorpholine.", "note": "Some entries share one result that the patent states for a list of compounds.", "data": [{"smiles": "CN(C)C", "note": "[Trimethylamine (TMA), Trimethylamine, reference compound]", "values": [{"measurement": "Salt PPI", "result": "≥ 0.1"}]}]}
